According to PubChem BioAssay AID1671190 (National Center for Advancing Translational Sciences (NCATS), 2021):
Screen size: about 580,000 compounds; about 6,100 (1.1%) were called active. The shares of active, inactive and inconclusive entries below differ from those in the screen. Calls follow the shape of the dose curve; as a rule, active = well fitted inhibition curve with a large enough effect; inconclusive = small, poorly fitted or top-dose-only effect, or another doubt; inactive = no such curve, though single readings can be large or run the other way. A potency beside an inconclusive call is a rough fit, not a confirmed value.

Amino acid sequences for entries named in this document (tags omitted). A change or cut given only in a name is not applied to a line headed by its entry.
UniProt P18054: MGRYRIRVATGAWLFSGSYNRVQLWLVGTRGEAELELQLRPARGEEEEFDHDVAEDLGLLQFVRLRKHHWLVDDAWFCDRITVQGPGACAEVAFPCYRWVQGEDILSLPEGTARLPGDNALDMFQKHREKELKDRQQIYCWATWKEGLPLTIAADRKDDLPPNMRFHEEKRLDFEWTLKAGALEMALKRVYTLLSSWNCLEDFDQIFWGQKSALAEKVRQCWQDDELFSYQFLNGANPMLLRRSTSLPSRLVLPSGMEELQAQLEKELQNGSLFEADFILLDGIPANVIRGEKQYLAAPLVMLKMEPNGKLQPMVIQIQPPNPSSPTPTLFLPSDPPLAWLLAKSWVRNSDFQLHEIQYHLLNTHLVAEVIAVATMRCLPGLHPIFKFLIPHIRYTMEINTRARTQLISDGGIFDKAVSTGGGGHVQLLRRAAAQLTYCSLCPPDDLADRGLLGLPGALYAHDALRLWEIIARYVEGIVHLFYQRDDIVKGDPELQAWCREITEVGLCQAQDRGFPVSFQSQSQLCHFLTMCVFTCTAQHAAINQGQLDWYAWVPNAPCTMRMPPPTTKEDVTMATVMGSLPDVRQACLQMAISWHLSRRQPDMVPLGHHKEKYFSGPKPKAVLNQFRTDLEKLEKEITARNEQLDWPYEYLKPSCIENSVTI

Each compound was assayed against Polyunsaturated fatty acid lipoxygenase ALOX12 (Homo sapiens) (UniProt P18054) (assay: Primary qHTS assay for inhibitors of human arachidonate 12S-lipoxygenase (ALOX12): Round 2). Settings: purified 12hLO, xylenol orange hydroperoxide absorbance; activity change, negative = inhibition: at 108 µM (top of the series) unless noted.
Procedure, shortened: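 Purified human 12hLO at 150 nM in 25 mM Hepes, 0.01% Triton X-100, pH 7.0, preincubated 15 min at room temperature with compound. Reaction started with 40 uM arachidonic acid, 30 min at room temperature. Hydroperoxide measured by Fe-xylenol orange, 573/405 nm absorbance ratio.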
% is scaled to controls: 0 for no effect and ±100 for the full control effect; potency is read from the fitted curve at half-maximal effect.

Compound	activity change, negative = inhibition	Potency
CC(=O)Nc1ccc(NC(=O)CN2C(=O)NC3(CCC(C(C)(C)C)CC3)C2=O)cc1 (stereo not drawn)	inactive: -14%	–
COc1cc(C2c3cc4c(cc3C(O)C3COCC23)OCO4)cc(OC)c1OC (stereo not drawn)	–	inconclusive: 50.1 µM [inhibitor, partial curve, poor fit]
Cc1ccc(NC(=O)c2c(C)oc3ccc(O)c(CN4CCCCC4)c23)c(C)c1	inconclusive: -45.5% [inhibitor]	–
O=C1c2ccccc2S(=O)(=O)c2cc(-c3nn[nH]n3)ccc21	inactive: -12%	–
O=C(NCC(c1ccco1)S(=O)(=O)c1ccc(Cl)cc1)c1ccc2c(c1)OCO2 (stereo not drawn)	–	inconclusive: 2 µM [inhibitor, full curve, poor fit]
CCc1ccccc1NC1=NCC(=O)N1Cc1ccc(OC)cc1	–	inconclusive: 35.5 µM [inhibitor, partial curve, poor fit]
CC(=O)NC1N=C(C)N(c2ccccc2)C1=O (stereo not drawn)	–	inconclusive: 25.1 µM [inhibitor, single point]
CC(=C/c1ccco1)/C=N/NC(=O)Cc1cccn1C	–	inconclusive: 56.2 µM [inhibitor, partial curve, poor fit]
Cc1ccc(-c2nnc(Nc3ccc(S(N)(=O)=O)cc3)c3ccccc23)cc1S(=O)(=O)N1CCCCC1	–	inconclusive: 100 µM [inhibitor, partial curve, poor fit]
CCOc1ccc(S(=O)(=O)Nc2cc(S(=O)(=O)N3CCOCC3)ccc2OC)cc1	–	inconclusive: 141 µM [inhibitor, single point]
Cc1nccn1CCNC(=O)C1CCCCC(=O)N1Cc1ccccc1 (stereo not drawn)	inactive: 33.3%	–
CCOc1cc(/C=N/Nc2nc(-c3cccs3)c(NC(C)=O)s2)ccc1O	–	inconclusive: 50.1 µM [inhibitor, partial curve, poor fit]
CC1=C(C)CS(=O)N(S(=O)(=O)c2ccc(Cl)cc2)C1 (stereo not drawn)	–	active: 39.8 µM
COc1cccc(NC(=O)NC[C@H]2O[C@@H](CO)[C@@H](O)[C@H]2N2CCC(C)CC2)c1	–	inconclusive: 28.2 µM [inhibitor, full curve]
Cc1sc2ncnc(N(C)C3CCCCC3)c2c1C	–	inconclusive: 112 µM [inhibitor, single point]
O=C(NCc1ccco1)C1CCN(c2nc3ccccc3n2Cc2ccccc2F)CC1	–	inconclusive: 35.5 µM [inhibitor, partial curve]
Cc1ccc(C)c(Cn2c(=O)cc(C)c3c(C)nn(C)c32)c1	–	inconclusive: 50.1 µM [inhibitor, partial curve, poor fit]
COCCCNC(=O)/C=C1\Sc2ccccc2N(Cc2ccccc2F)C1=O	inactive: 18.1%	–
Cc1cc(N2CCN(C)CC2)nc2ccc(NC(=O)c3ccc(Br)o3)cc12	inactive: 50.7%	–
N#Cc1cccc(CN2CCOC[C@H]2c2ncc(-c3ccc(Cl)s3)[nH]2)c1	–	inconclusive: 50.1 µM [inhibitor, full curve]
COc1ccc(Nc2ncc(C(=O)Nc3cc(Cl)ccc3OC)c3ccccc23)cc1	–	inconclusive: 15.8 µM [inhibitor, full curve]
O=C(NNc1ccc(O)cc1)c1ccc(Br)cc1	–	inconclusive: 44.7 µM [inhibitor, partial curve, poor fit]

Pulled by compound from the list above:
Compound	activity change, negative = inhibition	Potency
Cc1sc2ncnc(N(C)C3CCCCC3)c2c1C	–	inconclusive: 112 µM [inhibitor, single point]
COc1cc(C2c3cc4c(cc3C(O)C3COCC23)OCO4)cc(OC)c1OC (stereo not drawn)	–	inconclusive: 50.1 µM [inhibitor, partial curve, poor fit]

Remaining list, next part

Compound	activity change, negative = inhibition	Potency
COc1ccc(C(=O)Nc2ncccc2C)cc1Br	inactive: -3.64%	–
CC[n+]1c(/C=C/Nc2ccccc2)sc2ccccc21	–	inconclusive: 0.355 µM [inhibitor, full curve, poor fit]
Cc1ccc(S(=O)(=O)N(C)C)cc1NC(=O)c1cccs1	–	inconclusive: 126 µM [inhibitor, single point]
COc1ccc(N2CCN(C(=O)c3ccc(C)cc3Cl)CC2)cc1	–	inconclusive: 56.2 µM [inhibitor, full curve, poor fit]
COc1ccc(C(CCNCc2ccc(N(C)C)cc2)c2ccccc2)cc1 (stereo not drawn)	–	inconclusive: 50.1 µM [inhibitor, partial curve, poor fit]
CC1=C(C#N)C(c2ccc(C(C)C)cc2)C(C#N)=C(C)N1	–	inconclusive: 4.47 µM [inhibitor, full curve, poor fit]
Cc1ccc(NC(=O)CN(C)C(=O)c2cccc(-n3cccc3)c2)cc1	–	active: 35.5 µM
COc1cccc(CNC(=O)CCc2c(C)c3cc4c(C)coc4c(C)c3oc2=O)c1	–	inconclusive: 126 µM [inhibitor, partial curve, poor fit]
O=C(Nc1ccc(F)c(F)c1)c1ccccc1-c1ccccc1	–	inconclusive: 6.31 µM [inhibitor, full curve, poor fit]
CC(=O)Nc1ccc(OC(=O)c2cc3ccccc3oc2=O)cc1	inactive: 475%	–
CC(=O)N1CCN(c2nc3c(s2)CC(C(=O)Nc2cc(Cl)ccc2F)CC3)CC1 (stereo not drawn)	–	inconclusive: 12.6 µM [inhibitor, full curve]
CC1CC(=O)NN1C(=O)c1ccccc1 (stereo not drawn)	–	inconclusive: 0.631 µM [inhibitor, full curve, poor fit]
O=C(c1cccnc1)N1CCN(Cc2ccc3c(c2)OCO3)CC1	–	inconclusive: 0.501 µM [inhibitor, full curve, poor fit]
CCCCOc1ccc(C(=O)OCC(=O)c2cccs2)cc1	inactive: -7.19%	–
CC(C)c1ccc(NC(=O)Cn2nc3ccc(S(=O)(=O)C4CCCCC4)nn3c2=O)cc1	–	inconclusive: 35.5 µM [inhibitor, partial curve]
O=C1c2ccccc2C(=O)c2c1oc(C(F)(F)F)c2C(=O)c1ccccc1	–	inconclusive: 2 µM [inhibitor, full curve]
CCOC(=O)c1nn(-c2ccccc2)c(=O)c2c(N)scc12	–	active: 35.5 µM
COc1ccc(NC(=O)NNC(=O)c2ccc3ccccc3c2O)cc1OC	inactive: -2.83%	–
COc1ccc(N(C(=O)c2cccs2)C2C=CS(=O)(=O)C2)c(OC)c1 (stereo not drawn)	inactive: -38.9%	–
Cc1ccc2[nH]cc(CCNC(=O)NC3CCCCC3)c2c1	–	inconclusive: 0.631 µM [inhibitor, full curve, poor fit]
O=C1NC(=NC2CCCCC2)C2(CCN(Cc3ccc(F)cc3)C2)N1c1cc(F)cc(F)c1 (stereo not drawn)	inactive: 4.53% [at 6.33 µM]	–
